Experimental data taken from patent publication US20050031537A1, “Multifunctional COX-2 inhibitors” (priority 2002, published 2005).
Some results were stated once for a whole list of compounds, not compound by compound.

Tested on: PPRE luciferase
Test: PPRE luciferase activation, transient transfection reporter assay (test (a))
Format: cell-based, human
Conditions: for activation of PPRE luciferase: Example III, at concentrations tested (FIG. 1-3); for found to activate PPRE luciferase by at least 100%: statement in description of third embodiment
Text: We turn now to criterion (a), that is activation of PPRE luciferase by at least 100%. PPRE-luciferase refers to a DNA construct containing the peroxisome proliferator activated receptor (PPAR) binding element joined to luciferase. Cells are transfected with PPRE-luciferase DNA. Ligands of PPAR induce luciferase activity. The ability of a test compound to stimulate PPRE-luciferase signifies that the test compound activates PPAR-mediated gene transcription. PPRE means peroxisome proliferator response element and the method by which PPRE-luciferase is constructed is described in Schoonjans, K., et al, J. Biol. Chem. 270, No. 33, 19269-19276 (Aug. 18, 1995). Use of PPRE-luciferase in a transient transfection to measure increase in promoter activity is disclosed in Subbaramaiah, K. et al, J. Biol. Chem. 270, No. 15, 12440-12448 (Apr. 13, […]).
For each well, 1.8 μg of PPRE3-tk-luciferase construct plasmid DNA (described in Forman, B. M., et al, Cell 83, 803 (1995)) plus 0.2 μg of pSV-β-galactosidase were introduced into cells using 8 μg of LipofectAMINE as per the manufacturer's instructions (Invitrogen, CA). After 7 h of incubation, the medium was replaced with basal medium. After transfection, cells were treated with test compound for 24 h. Reporter activities which include luciferase and β-galactosidase were measured in cellular extract 24 h later. Six wells were used for each of the conditions. Luciferase activity represents data that have been normalized with β-galactosidase.
The luciferase assay was performed as per the BD Pharmingen assay reagents. The Enhanced Luciferase Assay Kit provides a firefly luciferase substrate formulation (Substrates A and B) and cell lysis buffer intended for use in measuring luciferase expressed by transfected cells. Media from cell culture plates was removed and rinsed twice with phosphate buffered saline. Enough 1X cell lysis buffer was added to cover cells and incubated at room temperature for 15-20 min. Cells were dislodged by scraping and transferred to microcentrifuge tubes. […] 20-100 μl cell extract was placed into an assay cuvette. One automatic injector type luminometer is used for assay. Manually 100 μl of Substrate A was added to the assay cuvette and automatically 100 μl of Substrate B was injected. Measurements were performed using a luminometer, for a measurement time of 10 seconds.
The β-galactosidase assay was performed as follows:
50 μl of cell lysate from above was incubated with 50 μl of o-nitrophenyl-β-D-galactoside (ONPG; 4 mg/mL) in Z buffer, (Na2HPO4.7H2O (0.06M), NaH2PO4.H2O (0.04M), 1M KCl (0.01M), 1M MgSO4 (0.001M), β-mercaptoethanol (BME) (0.05M) pH 7.0). The reaction was stopped after sufficient yellow color has developed. The yellow color developed is measured at A420 […].

Row | Molecule | activation of PPRE luciferase | found to activate PPRE luciferase by at least 100%
1 | CCCCCCCOC(=O)Cc1c(C)n(C(=O)c2ccc(Cl)cc2)c2ccc(OC)cc12 [Indomethacin Analog 1, indomethacin heptyl ester] | more than 100% | at least 100%
2 | COc1ccc2c(c1)c(CC(=O)NCCc1ccccc1)c(C)n2C(=O)c1ccc(Cl)cc1 [Indomethacin Analog 2, N-(2-phenylethyl)-indomethacin amide] |  | at least 100%
3 | COc1ccc2c(c1)c(CC(=O)Nc1ccc(NC(C)=O)cc1)c(C)n2C(=O)c1ccc(Cl)cc1 [Indomethacin Analog 5] |  | at least 100%
4 | CS(=O)(=O)c1ccc(-n2nc(C(F)(F)F)cc2-c2ccc(F)cc2)cc1 [SC-58125, 4-[5-(4-fluorophenyl)-3-(trifluoromethyl)-1H-pyrazol-1-yl]benzenemethylsulfone] | more than 100% | at least 100%
5 | COc1ccc2c(c1)c(CC(=O)Nc1cccnc1)c(C)n2C(=O)c1ccc(Cl)cc1 [Indomethacin Analog 4, N-(3-pyridyl)-indomethacin amide] | more than 100% | at least 100%
6 | COc1ccc(OC(=O)Cc2c(C)n(C(=O)c3ccc(Cl)cc3)c3ccc(OC)cc23)cc1 [Indomethacin Analog 3, 1-(p-chlorobenzoyl)-5-methoxy-2-methyl-1H-indole-3-acetic acid, 4-methoxyphenyl ester] |  | at least 100%
7 | 1-(p-chlorobenzoyl)-5-methoxy-2-methyl-1H-indole-3-octylacetamide [Indomethacin Analog 6] |  | at least 100%
8 | NS(=O)(=O)c1ccc(-n2nc(C(F)(F)F)cc2-c2ccc(Cl)cc2)cc1 [SC-236, 4-[5-(4-chlorophenyl)-3-(trifluoromethyl)-1H-pyrazol-1-yl]benzenesulfonamide] | more than 100% | at least 100%
